This note sets out measurements from the supplement of paper PMC10849652.

By UniProt entry, the sequences of proteins in these tests, tags left out. Where a name states a change or a piece, a line headed by the entry shows the natural chain unless it says otherwise.
UniProt Q9H9Z2: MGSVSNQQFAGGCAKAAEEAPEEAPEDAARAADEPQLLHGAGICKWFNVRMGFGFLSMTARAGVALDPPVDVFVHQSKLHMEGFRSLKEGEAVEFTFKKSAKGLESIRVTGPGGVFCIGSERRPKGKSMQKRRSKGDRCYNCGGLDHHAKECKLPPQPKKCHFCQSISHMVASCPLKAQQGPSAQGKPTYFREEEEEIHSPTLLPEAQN
UniProt Q7Z4F1: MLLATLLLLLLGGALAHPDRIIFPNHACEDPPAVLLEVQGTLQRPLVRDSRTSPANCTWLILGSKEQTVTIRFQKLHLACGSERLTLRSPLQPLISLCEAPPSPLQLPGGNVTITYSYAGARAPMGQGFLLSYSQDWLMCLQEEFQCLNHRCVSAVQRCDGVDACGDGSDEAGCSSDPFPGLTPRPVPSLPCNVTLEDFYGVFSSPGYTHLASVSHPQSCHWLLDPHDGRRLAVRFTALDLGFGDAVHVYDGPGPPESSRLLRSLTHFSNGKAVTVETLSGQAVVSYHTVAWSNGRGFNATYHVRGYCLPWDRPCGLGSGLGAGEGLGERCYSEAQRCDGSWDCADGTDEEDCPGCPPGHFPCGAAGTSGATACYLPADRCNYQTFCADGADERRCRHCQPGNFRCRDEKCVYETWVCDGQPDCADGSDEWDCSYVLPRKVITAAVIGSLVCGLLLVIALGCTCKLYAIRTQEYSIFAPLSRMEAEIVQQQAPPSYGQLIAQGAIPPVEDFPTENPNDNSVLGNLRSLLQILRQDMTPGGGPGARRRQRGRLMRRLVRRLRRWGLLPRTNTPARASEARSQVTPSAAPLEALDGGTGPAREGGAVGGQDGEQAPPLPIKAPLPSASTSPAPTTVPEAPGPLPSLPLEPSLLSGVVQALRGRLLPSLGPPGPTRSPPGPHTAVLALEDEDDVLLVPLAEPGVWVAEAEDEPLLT
UniProt Q6P5S2: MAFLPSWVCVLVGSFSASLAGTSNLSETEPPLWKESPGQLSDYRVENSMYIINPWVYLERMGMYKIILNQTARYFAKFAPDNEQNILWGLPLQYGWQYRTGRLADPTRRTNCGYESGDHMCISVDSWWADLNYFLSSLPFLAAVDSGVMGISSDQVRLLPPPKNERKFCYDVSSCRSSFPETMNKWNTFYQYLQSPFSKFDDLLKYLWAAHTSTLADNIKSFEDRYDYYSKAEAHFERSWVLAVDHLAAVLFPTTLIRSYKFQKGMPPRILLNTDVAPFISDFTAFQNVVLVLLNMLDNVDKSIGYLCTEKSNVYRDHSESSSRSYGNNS
UniProt Q6P1M3: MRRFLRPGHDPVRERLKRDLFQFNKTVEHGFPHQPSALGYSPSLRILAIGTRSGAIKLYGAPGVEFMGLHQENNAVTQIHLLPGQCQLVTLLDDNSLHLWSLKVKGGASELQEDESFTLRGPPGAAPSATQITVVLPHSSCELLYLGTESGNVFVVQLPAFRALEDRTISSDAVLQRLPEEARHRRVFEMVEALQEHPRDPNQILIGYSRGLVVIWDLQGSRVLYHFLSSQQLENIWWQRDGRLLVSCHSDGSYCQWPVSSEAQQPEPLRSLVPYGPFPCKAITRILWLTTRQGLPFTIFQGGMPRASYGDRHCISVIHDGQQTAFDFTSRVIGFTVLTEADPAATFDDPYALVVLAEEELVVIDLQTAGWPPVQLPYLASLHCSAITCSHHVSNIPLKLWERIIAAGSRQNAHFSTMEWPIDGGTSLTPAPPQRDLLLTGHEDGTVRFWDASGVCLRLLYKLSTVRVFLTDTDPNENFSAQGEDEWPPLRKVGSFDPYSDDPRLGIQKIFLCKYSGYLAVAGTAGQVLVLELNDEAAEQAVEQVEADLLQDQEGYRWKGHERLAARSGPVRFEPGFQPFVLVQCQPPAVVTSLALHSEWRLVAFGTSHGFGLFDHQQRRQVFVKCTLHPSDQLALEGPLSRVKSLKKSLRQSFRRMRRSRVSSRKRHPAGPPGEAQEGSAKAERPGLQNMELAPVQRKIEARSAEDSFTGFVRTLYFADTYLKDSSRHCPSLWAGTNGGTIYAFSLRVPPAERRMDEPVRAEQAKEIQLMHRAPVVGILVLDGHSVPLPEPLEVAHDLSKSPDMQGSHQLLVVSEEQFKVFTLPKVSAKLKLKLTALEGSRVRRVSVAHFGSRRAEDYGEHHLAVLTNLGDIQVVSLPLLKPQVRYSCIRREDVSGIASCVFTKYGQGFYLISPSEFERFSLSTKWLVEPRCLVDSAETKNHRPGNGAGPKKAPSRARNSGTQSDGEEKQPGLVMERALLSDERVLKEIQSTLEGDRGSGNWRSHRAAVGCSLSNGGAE
UniProt Q6ZV70: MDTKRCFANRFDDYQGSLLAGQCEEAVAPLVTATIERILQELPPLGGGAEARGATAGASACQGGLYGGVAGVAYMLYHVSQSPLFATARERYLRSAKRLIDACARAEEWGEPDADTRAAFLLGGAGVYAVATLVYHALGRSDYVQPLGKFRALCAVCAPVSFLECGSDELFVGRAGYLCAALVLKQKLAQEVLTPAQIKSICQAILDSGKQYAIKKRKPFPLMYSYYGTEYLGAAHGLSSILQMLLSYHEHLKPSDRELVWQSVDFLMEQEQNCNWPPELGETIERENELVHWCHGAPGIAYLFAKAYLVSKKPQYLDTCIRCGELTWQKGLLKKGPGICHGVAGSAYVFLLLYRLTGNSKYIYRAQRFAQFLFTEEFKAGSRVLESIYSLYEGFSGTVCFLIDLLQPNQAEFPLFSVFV
UniProt P61968: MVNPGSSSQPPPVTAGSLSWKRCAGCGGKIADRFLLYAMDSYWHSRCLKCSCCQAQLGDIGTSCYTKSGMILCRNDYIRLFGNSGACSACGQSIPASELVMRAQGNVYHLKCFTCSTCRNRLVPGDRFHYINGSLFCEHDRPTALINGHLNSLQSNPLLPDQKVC
UniProt O75581: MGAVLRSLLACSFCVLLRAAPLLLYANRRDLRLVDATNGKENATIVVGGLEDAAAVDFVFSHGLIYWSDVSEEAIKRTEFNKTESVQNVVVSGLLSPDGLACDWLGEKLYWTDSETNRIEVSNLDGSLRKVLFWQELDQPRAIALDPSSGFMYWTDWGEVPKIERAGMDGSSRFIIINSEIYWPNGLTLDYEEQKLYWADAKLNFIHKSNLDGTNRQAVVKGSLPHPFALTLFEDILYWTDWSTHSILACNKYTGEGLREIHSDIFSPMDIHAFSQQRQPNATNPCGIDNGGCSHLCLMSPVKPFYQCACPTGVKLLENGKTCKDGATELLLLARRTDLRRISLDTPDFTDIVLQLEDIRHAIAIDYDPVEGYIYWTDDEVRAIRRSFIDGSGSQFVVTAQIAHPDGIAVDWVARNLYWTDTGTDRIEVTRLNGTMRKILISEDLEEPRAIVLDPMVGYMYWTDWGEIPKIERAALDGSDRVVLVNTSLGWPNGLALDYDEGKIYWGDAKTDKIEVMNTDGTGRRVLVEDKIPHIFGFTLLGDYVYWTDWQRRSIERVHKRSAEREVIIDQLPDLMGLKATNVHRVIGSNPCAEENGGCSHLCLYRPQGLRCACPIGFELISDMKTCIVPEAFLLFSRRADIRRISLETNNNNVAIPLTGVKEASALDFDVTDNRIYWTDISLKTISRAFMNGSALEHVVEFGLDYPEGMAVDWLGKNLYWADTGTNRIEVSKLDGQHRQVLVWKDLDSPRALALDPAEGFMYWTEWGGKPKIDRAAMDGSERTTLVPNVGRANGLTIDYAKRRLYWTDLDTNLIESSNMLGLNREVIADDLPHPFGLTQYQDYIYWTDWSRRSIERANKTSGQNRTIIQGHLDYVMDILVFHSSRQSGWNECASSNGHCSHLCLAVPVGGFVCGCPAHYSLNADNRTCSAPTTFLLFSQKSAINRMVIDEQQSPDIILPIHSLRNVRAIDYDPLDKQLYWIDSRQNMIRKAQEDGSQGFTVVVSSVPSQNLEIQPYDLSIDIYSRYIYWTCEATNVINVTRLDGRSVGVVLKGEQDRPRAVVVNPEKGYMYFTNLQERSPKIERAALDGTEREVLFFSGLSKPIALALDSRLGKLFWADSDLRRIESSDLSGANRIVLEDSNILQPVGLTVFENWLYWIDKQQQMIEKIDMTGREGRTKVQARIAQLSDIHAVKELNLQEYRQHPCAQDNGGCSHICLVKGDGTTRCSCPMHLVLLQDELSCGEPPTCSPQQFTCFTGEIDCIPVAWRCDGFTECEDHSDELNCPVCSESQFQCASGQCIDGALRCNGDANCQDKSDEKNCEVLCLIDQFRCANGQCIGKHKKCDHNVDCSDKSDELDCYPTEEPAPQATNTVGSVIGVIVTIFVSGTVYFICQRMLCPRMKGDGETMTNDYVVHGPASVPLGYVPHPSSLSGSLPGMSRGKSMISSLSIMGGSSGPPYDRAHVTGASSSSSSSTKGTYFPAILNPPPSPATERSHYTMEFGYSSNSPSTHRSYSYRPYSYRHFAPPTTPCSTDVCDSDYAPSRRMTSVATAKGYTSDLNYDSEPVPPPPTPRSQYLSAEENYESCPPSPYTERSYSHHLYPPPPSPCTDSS
UniProt Q6PJG9: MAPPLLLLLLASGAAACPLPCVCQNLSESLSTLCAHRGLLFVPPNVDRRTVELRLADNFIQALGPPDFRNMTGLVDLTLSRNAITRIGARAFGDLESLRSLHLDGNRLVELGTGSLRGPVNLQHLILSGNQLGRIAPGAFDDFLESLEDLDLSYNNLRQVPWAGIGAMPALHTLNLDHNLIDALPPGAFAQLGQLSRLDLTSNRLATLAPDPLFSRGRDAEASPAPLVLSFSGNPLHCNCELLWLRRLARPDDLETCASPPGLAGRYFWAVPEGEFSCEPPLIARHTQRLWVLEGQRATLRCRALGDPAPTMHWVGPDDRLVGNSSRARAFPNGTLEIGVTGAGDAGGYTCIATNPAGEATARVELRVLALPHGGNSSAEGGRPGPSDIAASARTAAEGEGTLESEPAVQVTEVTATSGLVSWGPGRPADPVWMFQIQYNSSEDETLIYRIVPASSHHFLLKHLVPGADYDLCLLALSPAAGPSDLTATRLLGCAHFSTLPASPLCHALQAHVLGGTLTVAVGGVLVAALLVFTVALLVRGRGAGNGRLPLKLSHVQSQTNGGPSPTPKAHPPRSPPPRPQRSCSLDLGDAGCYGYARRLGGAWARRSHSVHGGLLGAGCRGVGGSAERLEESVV
UniProt Q13571: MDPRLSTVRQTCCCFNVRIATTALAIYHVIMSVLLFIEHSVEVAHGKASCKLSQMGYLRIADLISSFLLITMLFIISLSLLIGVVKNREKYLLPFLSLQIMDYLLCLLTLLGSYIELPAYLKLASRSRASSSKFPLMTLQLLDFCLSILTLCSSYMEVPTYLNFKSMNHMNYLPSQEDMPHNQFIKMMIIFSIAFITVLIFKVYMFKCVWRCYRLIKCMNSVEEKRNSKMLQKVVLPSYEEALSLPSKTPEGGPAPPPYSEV
UniProt Q15048: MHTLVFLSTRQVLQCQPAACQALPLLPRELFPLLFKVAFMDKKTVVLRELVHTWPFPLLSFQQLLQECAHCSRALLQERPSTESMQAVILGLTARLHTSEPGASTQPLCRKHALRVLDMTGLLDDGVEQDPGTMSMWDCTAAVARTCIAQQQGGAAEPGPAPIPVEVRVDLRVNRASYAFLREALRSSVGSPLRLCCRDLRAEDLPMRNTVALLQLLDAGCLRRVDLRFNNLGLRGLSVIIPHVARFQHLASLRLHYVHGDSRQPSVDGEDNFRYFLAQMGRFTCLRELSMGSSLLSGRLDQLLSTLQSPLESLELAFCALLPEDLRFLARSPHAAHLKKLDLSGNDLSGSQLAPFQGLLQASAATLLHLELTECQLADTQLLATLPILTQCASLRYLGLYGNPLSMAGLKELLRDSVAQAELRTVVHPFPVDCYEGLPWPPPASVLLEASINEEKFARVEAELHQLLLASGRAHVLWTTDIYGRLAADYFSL
UniProt Q9GZZ8: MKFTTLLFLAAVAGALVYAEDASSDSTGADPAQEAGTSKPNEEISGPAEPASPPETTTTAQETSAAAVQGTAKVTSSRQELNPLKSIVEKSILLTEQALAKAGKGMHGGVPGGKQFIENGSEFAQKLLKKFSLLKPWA
UniProt Q6P1Q0: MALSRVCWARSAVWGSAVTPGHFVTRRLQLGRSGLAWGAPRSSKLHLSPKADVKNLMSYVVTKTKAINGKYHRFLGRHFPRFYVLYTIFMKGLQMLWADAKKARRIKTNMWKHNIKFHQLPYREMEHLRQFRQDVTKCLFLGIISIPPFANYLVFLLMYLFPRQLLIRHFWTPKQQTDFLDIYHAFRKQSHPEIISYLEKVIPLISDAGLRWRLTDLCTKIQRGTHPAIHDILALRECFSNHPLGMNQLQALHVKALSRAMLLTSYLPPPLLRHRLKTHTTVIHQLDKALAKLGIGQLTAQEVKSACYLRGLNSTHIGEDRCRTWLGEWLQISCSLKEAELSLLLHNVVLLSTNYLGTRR

The other results are listed elsewhere or left out.

Compound in the experiment: C1=CC=C(C=C1)[C@H](COC2=CC3=C(C=C2)NC(=O)N3)NC(=O)C4=CC=CN(C4=O)CC5=CC(=C(C=C5)F)F
In words: log2 fold change, soluble protein after heating vs DMSO (PISA); higher = thermal stabilisation; K562 cells, 10 uM, 30 min; active = over 0.2 and 3.5 SD of the protein, either way, in both replicates (recomputed). Summed up:
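Values are thermal stability changes relative to control samples and are taken from duplicates. They are stated as log2 fold changes. Before quantification by TMTpro 16plex LC-MS/MS with equalised channel sums, K562 cells at 2×10^6 cells/mL were treated with 10 μM compound for 30 min, heated in aliquots for 3 min across 48°C-58°C, pooled, extracted in PBS with 0.5% NP-40 at 4°C, and centrifuged at 21,000xg for 90 min to give the soluble supernatant.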
On to LIN28A (UniProt Q9H9Z2), for which the log2 fold change is inactive: -0.16.
With LRP10 (UniProt Q7Z4F1), the log2 fold change is inactive: 0.
For the target LIMK1 (UniProt P53667), the log2 fold change was inactive: -0.105.
The value for LEG1 (UniProt Q6P5S2) was inactive: -0.345.
With LLGL2 (UniProt Q6P1M3), the log2 fold change was inactive: -0.02.
Consider LCP2 (UniProt Q13094), for which the log2 fold change was inactive: -0.03.
Take LAMA2 (UniProt P24043): the log2 fold change was inactive: -0.172.
Regarding LANCL3 (UniProt Q6ZV70), the log2 fold change was inactive: 0.047.
For the target LMO4 (UniProt P61968), the log2 fold change was inactive: 0.131.
With LRP6 (UniProt O75581), the log2 fold change is inactive: 0.083.
Take LRFN4 (UniProt Q6PJG9): the log2 fold change is inactive: -0.03.
Regarding LAPTM5 (UniProt Q13571), the log2 fold change was inactive: 0.021.
Take LCMT2 (UniProt O60294): the log2 fold change is inactive: 0.
As to LRRC14 (UniProt Q15048), the log2 fold change is inactive: -0.098.
LACRT (UniProt Q9GZZ8): the log2 fold change is inactive: 0.172.
In the case of LRBA, A0A494BZW2, the log2 fold change is inactive: 0.002.
For LETMD1 isoform 7 (UniProt Q6P1Q0), the log2 fold change is inactive: 0.037.
